# Source: PubChem BioAssay AID590 (National Center for Advancing Translational Sciences (NCATS), 2007)
# Hit rate of the full screen: of about 59,000 compounds, about 6,500 (11%) were called active. The shares of active, inactive and inconclusive entries below differ from those in the screen. Rule as the data show it: active = max dye-equivalent concentration above about 10 nM; inconclusive = mostly about 1.1 nM to 9.6 nM; inactive = weaker than that.
# Assay: qHTS Assay for Spectroscopic Profiling in A350 Spectral Region
# Details: Compound autofluorescence, 340/450 nm, Alexa 350 dye-equivalents; active compounds read high
row,SMILES,max dye-equivalent concentration
1,C=CCn1c(SCC(=O)c2cccs2)nc2sc(C)cc2c1=O,inconclusive: 1.7 nM
2,Cn1cc(C(=O)NCCN2CCN(c3ccccc3F)CC2)c2c3ccccc3n(C)c2c1=O,active: 100 nM
3,CN1CC[C@@]2(CCN3CCc4c(oc5ccccc45)[C@@H]3C2)N(C)C1=O,active: 36 nM
4,O=S(=O)(c1ccccc1)N1CCC[C@@]2(CCN(Cc3ccccc3)C2)C1,inactive
5,Cc1csc(NC(=O)CSc2nnc3ncccn23)n1,inconclusive: 2.3 nM
6,Cc1cnc(NC(=O)CSc2nnc(-c3cccs3)n2C)s1,inactive
7,CC(=O)N(C)c1ccc(OCC(O)COc2ccc(N(C)C(C)=O)cc2)cc1,inconclusive: 1.2 nM
8,O=C(NCc1ccccn1)c1coc(=O)c(Br)c1,active: 840 nM
9,Cc1cc(C(=O)COc2ncnc3sccc23)c(C)n1C1CC1,inconclusive: 1.2 nM
10,COc1ccc(-c2noc(-c3ccccc3-c3ccccc3)n2)cc1OC,inactive
11,COc1ccc(N2CCN(C(=O)c3ccc(NS(=O)(=O)c4ccccc4)cc3)CC2)cc1,inconclusive: 1.4 nM
12,C=COCCNC(=O)C1CC(=O)N(c2ccc(C)cc2)C1 (configuration not stated),inconclusive: 7.4 nM
13,CN(C)c1ccnc2sc3c(=O)n(Cc4ccccc4)cnc3c12,active: 32 nM
14,O=C(Nc1ccc(-c2nc3ncccc3o2)cc1)c1ccco1,active: 370 nM
15,O=C(CCCC(=O)N(CC(=O)NC1CCCCC1)Cc1ccc2c(c1)OCO2)Nc1ccccn1,inactive
16,CCOC(=O)Cn1c(=O)c2c(nc(Br)n2CC(=O)OCC)n(C)c1=O,inconclusive: 1.2 nM
17,COc1ccc(CNc2ncncc2-c2ccc(C(=O)N(C)C)cc2)c(OC)c1,inactive
18,COCC(=O)N1CCC2(CCCN(Cc3ccc(C#N)cc3)C2)CC1,inactive
19,C/C(=C\CNc1ncnc2c1ncn2[C@@H]1O[C@@H](CO)[C@@H](O)[C@H]1O)CO,inactive

row,SMILES,max dye-equivalent concentration
1,CCCC1C(C#N)=C(N)Oc2cc(C)n(C)c(=O)c21 (configuration not stated),active: 650 nM
2,CCN1C(=O)/C(=C2/Sc3ccc(OC)cc3N2C)SC1=Nc1cccc(O)c1,active: 15 nM
3,CC1CN(C(=O)C(C)N2C(=O)c3ccccc3C2=O)CC(C)O1 (configuration not stated),inconclusive: 2.5 nM
4,O=C(Nc1ccc(Cl)cc1)c1cc2nc(-c3ccco3)cc(C(F)(F)F)n2n1,active: 26 nM
5,CN(C(=O)c1ccc(NC(=O)c2cnccn2)cc1)C1CCCCC1,active: 920 nM
6,CC(C)CCNC(=O)C(c1cccs1)N(CC1CCCO1)C(=O)Cn1nnc2ccccc21 (configuration not stated),inactive
7,Cc1ccc(C)c(S(=O)(=O)C(C#N)c2nc3ccccc3nc2N2CC(C)OC(C)C2)c1 (configuration not stated),inconclusive: 1.9 nM
8,O=C(c1ccco1)c1cn(CC(=O)N2CCCCC2)c2ccccc12,inconclusive: 2.7 nM
9,COc1cc(C)c(S(=O)(=O)Nc2ccccc2F)cc1C,inconclusive: 2 nM
10,Cc1c(N2CCCC2)cc2c(c1NC(=O)c1ccccc1Cl)C(C)(C)CC2(C)C,inactive
11,Cc1cc(NC(=O)CSc2nnnn2Cc2ccccc2)no1,inconclusive: 1.7 nM
12,O=C1NC(c2ccccn2)Nc2sc3c(c21)CCC3 (configuration not stated),inconclusive: 6.2 nM
13,CSc1cccc(NC(=O)C2CCCN2S(=O)(=O)c2ccc3c(c2)CCC(=O)N3)c1 (configuration not stated),inactive
14,CN(C)CCCNc1oc(-c2cccc(Cl)c2)nc1C#N,active: 100 nM
15,Cc1cnc(C(=O)OCC(=O)N2c3ccccc3NC(=O)C2(C)C)cn1,inactive
16,COc1cccc(C(=O)N(Cc2ccc3c(c2)OCO3)Cc2nc3ccccc3c(=O)[nH]2)c1,inconclusive: 1.4 nM
17,CC1CCN(C(=O)c2cc3ccccc3o2)CC1,inconclusive: 2.1 nM
18,COc1ccc(-c2nnc3c4ccccc4c(C)nn23)cc1S(=O)(=O)N1CCN(CCO)CC1,inactive
19,O=C(O)C1CCN(c2ncnc3ccc(-c4ccccc4C(F)(F)F)cc23)CC1,inactive

# Some of the entries so far, with tabs.
row	SMILES	max dye-equivalent concentration
6	CC(C)CCNC(=O)C(c1cccs1)N(CC1CCCO1)C(=O)Cn1nnc2ccccc21 (configuration not stated)	inactive
7	Cc1ccc(C)c(S(=O)(=O)C(C#N)c2nc3ccccc3nc2N2CC(C)OC(C)C2)c1 (configuration not stated)	inconclusive: 1.9 nM

# Copied from the list.
# Value of O=C1NC(c2ccccn2)Nc2sc3c(c21)CCC3 (configuration not stated) under max dye-equivalent concentration: inconclusive: 6.2 nM
# Value of COc1cc(C)c(S(=O)(=O)Nc2ccccc2F)cc1C under max dye-equivalent concentration: inconclusive: 2 nM

# Remaining list, next part.

row,SMILES,max dye-equivalent concentration
1,CCOC(=O)C1CCN(S(=O)(=O)c2ccc(C(=O)OC)cc2)CC1,inactive
2,CCCC(=O)N1CCc2cc(-c3nc(N)sc3C)ccc21,inconclusive: 2.6 nM
3,CCOC(=O)C(Sc1nnc2c3ccccc3n(CC)c2n1)C(=O)OCC,inconclusive: 3.3 nM
4,CN1CCc2ccccc2C1C1CCNCC1 (configuration not stated),inactive
5,O=c1c(-c2ccc(Cl)cc2)[n+]([O-])c2ccccc2n1O,inconclusive: 4.2 nM
6,O=c1[nH]c2ccc(Cl)cc2c(-c2ccccc2)c1CN1CCOCC1,active: 45 nM
7,CCc1cc2cc3c(cc2nc1SCC(=O)Nc1cc(C)on1)OCO3,inconclusive: 8.2 nM
8,COCCNC(=O)CCn1nc(-c2ccc(Cl)cc2)ccc1=O,inactive
9,CCOc1ccccc1N(CC(=O)N1CCOCC1)S(=O)(=O)c1ccc(SC)cc1,inconclusive: 3.9 nM
10,CCOC(=O)C1=C(CNCc2ccc(C)cc2)NC(=O)NC1c1ccc(OC)cc1 (configuration not stated),inactive
11,CC(=O)NC12CC3CC(C1)CC(C(=O)OCC(=O)Nc1ncc(Cl)cc1Cl)(C3)C2,inconclusive: 1.5 nM
12,CCc1cc(C(=O)N2CCOCC2)c(NC2=NS(=O)(=O)c3ccccc32)s1,inconclusive: 4.2 nM
13,CCOc1cc(N2CCOCC2)c(OCC)cc1NC(=O)c1cc(-c2ccco2)nc2ccccc12,inactive
14,CCN(CC)CCNC(=O)c1c(O)c2cccc3c2n(c1=O)CCC3,inconclusive: 8.5 nM
15,COc1ccc2c(c1)C(=O)N(c1ccccc1OC)C(=O)C2,inconclusive: 1.2 nM
16,COc1ccc(-c2cc(C(F)F)n3ncc(C(=O)N4CCN5CCCC5C4)c3n2)cc1 (configuration not stated),active: 220 nM
17,O=C(Cn1nnc2ccccc2c1=O)NC1CCCc2ccccc21 (configuration not stated),inconclusive: 1.2 nM
18,CCOc1ccc(C2CC(c3ccc(Br)cc3)Nc3nc(N)nn32)cc1 (configuration not stated),active: 17 nM
19,CC(C)(C)n1nnnc1C(c1cc2cc3c(cc2[nH]c1=O)OCCO3)N1CCSCC1 (configuration not stated),active: 260 nM
